Out of some 320,000 compounds screened, about 2,100 (0.66%) were called active. The inconclusive results got no clear call from the source; some entries with a clear call stand among them for comparison. Calls follow the shape of the dose curve; as a rule, active = well fitted inhibition curve with a large enough effect in the signal ratio, with a control signal flat (not every such curve was filed as active); inconclusive = small, poorly fitted or top-dose-only effect, or effect the other way, or a change in a side signal; inactive = flat fitted curve, though single readings scatter; the % refers to the signal ratio. Potencies of inconclusive entries are doubtful fits and often do not repeat.
Experiment: qHTS Assay for Lipid Storage Modulators in Drosophila S3 Cells
Conditions: BODIPY lipid droplet fluorescence, 18-24 h, cells fed with added oleic acid; lipid storage change, negative = inhibition: at 46.1 µM (top of the series) unless noted
How it was run: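 Drosophila S3 cells loaded with oleic acid (400 uM, as added) and compounds at several concentrations; lipid droplets imaged by 488-nm laser-scanning cytometry, 500–530 nm intensity and object ratio to cell channel. Percent activity normalized to 20 uM Triacsin C.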
% is scaled to controls: 0 for no effect and ±100 for the full control effect; potency is read from the fitted curve at half-maximal effect.

Question: Which Potency does the source give for `CCOC(=O)c1c(-c2cccc(C)c2)csc1NC(=O)C1CC=CCC1C(=O)O` (stereo not given) here?
Answer: The Potency was inconclusive: 0.58 µM [activator, single point].

Question: Which lipid storage change, negative = inhibition does the source give for `CC(=O)OC(C)[C@H]1CC[C@H]2[C@@H]3CC[C@H]4C[C@@H](OC(C)=O)CC[C@]4(C)C3=CC[C@]12C` (stereo not given in full) here?
Answer: Its lipid storage change, negative = inhibition is inconclusive: -12.2%.

Question: For `COc1ccc(OC)c(NC(=O)Cn2cc(C(=O)c3ccco3)c3ccccc32)c1`, which Potency is on record?
Answer: The Potency was inconclusive: 3.66 µM [activator, full curve].

Question: Which Potency does the source give for `CCO[C@@H]1c2c(ccc3ccc(=O)oc23)OC(C)(C)[C@H]1O` here?
Answer: Its Potency is inconclusive: 16.4 µM [activator, single point].

Question: With `O=C(CSc1nnc(C2CC2)n1-c1ccccc1)N1CCNC1=O` as the compound, how does the lipid storage change, negative = inhibition read?
Answer: Its lipid storage change, negative = inhibition is inconclusive: 4.97%.

Question: For `COn1c(SCc2ccc(C)cc2C)nc2ccccc2c1=O`, which lipid storage change, negative = inhibition is on record?
Answer: Its lipid storage change, negative = inhibition is inconclusive: 17.4%.

Question: For `COc1ccc(CCNC(=O)Cc2c(Cl)cccc2Cl)cc1`, which Potency is on record?
Answer: The Potency was inconclusive: 6.51 µM [rising, single point].

Question: With `CCCNC(=O)C(Cc1cccc(C#N)c1)NC(=O)c1ccc(C#N)cc1` (stereo not given) as the compound, how does the lipid storage change, negative = inhibition read?
Answer: Its lipid storage change, negative = inhibition is inconclusive: 5.46%.

Question: Which lipid storage change, negative = inhibition does the source give for `Cn1c(=O)[nH]c(=O)c2c1nc(NCCc1ccccc1)n2CC(O)COc1ccccc1` (stereo not given) here?
Answer: Its lipid storage change, negative = inhibition is inconclusive: 60%.

Question: Which lipid storage change, negative = inhibition does the source give for `N=c1nc(N)nc2n1NC(c1ccc(F)cc1)=CS2` here?
Answer: The lipid storage change, negative = inhibition was inconclusive: 4.19%.

Question: For `CCCN1CCN(CC(=O)NCC(=O)Nc2cccc(C)c2C)CC1`, which lipid storage change, negative = inhibition is on record?
Answer: Its lipid storage change, negative = inhibition is “inconclusive”.

Question: Which lipid storage change, negative = inhibition does the source give for `O=C(NCC(=O)N(CC1CCCO1)C1(C(=O)NC2CCCC2)CCCCC1)c1ccccc1` (stereo not given) here?
Answer: Its lipid storage change, negative = inhibition is inconclusive: -46.6%.

Question: For `CCOc1ccc(S(=O)(=O)Oc2ccc3ccccc3c2)cc1`, which “lipid storage change, negative = inhibition” value is on record?
Answer: The value was inactive: -14.9%.

Question: Which lipid storage change, negative = inhibition does the source give for `Cc1csc(SCC(=O)NC(=O)NC2CCCC2)n1` here?
Answer: The lipid storage change, negative = inhibition was inconclusive: -12.2%.

Question: With `CCN(CC)S(=O)(=O)c1ccc2[nH]c(=O)c3ccccc3c2c1` as the compound, how does the Potency read?
Answer: The Potency was inconclusive: 13 µM [activator, partial curve].

Question: With `CCCCCCSc1cc(-c2nc3ccc(Cl)cn3c2NC2CCCCC2)ccc1OC` as the compound, how does the lipid storage change, negative = inhibition read?
Answer: The lipid storage change, negative = inhibition was inconclusive: 14.3%.

Question: Which lipid storage change, negative = inhibition does the source give for `CCN(C(=O)COC(=O)c1oc2ccccc2c1C)c1c(N)n(Cc2ccccc2)c(=O)[nH]c1=O` here?
Answer: Its lipid storage change, negative = inhibition is inconclusive: 14.2%.

Question: For `CCN(CCNC(=O)c1ccc(C#N)cc1)c1cccc(C)c1`, which lipid storage change, negative = inhibition is on record?
Answer: The lipid storage change, negative = inhibition was inconclusive: 71.1%.

Question: For `Cc1ccc(NC(=O)c2sccc2C)nc1`, which Potency is on record?
Answer: Its Potency is inconclusive: 13 µM [activator, single point].

Question: For `COc1ccc(NC(=O)c2sccc2-n2cccc2)cc1`, which lipid storage change, negative = inhibition is on record?
Answer: The lipid storage change, negative = inhibition was inconclusive: 32.5%.

Question: For `O=S(=O)(c1ccc(Br)s1)N1CCC2(CC1)OCCO2`, which lipid storage change, negative = inhibition is on record?
Answer: Its lipid storage change, negative = inhibition is inconclusive: 7.95%.

Question: For `Cc1c(C#N)c2ccccc2n1CC(=O)NC(C)c1ccccc1` (stereo not given), which Potency is on record?
Answer: Its Potency is inconclusive: 1.64 µM [activator, single point].

Question: With `Cc1ccccc1C(=O)Nc1ccc(N2CCN(C)CC2)nc1` as the compound, how does the lipid storage change, negative = inhibition read?
Answer: Its lipid storage change, negative = inhibition is inconclusive: 26.6%.

Question: With `COC(=O)c1sc(NC(=O)C(C)c2ccccc2)nc1C` (stereo not given) as the compound, how does the Potency read?
Answer: Its Potency is inconclusive: 0.103 µM [activator, full curve, poor fit].

Question: For `COc1cc(C2C3=C(Nc4ncnn42)c2ccccc2CC3)cc(OC)c1OC` (stereo not given), which Potency is on record?
Answer: Its Potency is inconclusive: 4.61 µM [falling, full curve, poor fit].

Question: Which lipid storage change, negative = inhibition does the source give for `COc1cccc(OC)c1-c1nn(-c2ncc(C(F)(F)F)cc2Cl)c(=O)o1` here?
Answer: The lipid storage change, negative = inhibition was inconclusive: 7.35%.

Question: For `COCCCNc1nc2ccccc2nc1NS(=O)(=O)c1cccc(C)c1`, which lipid storage change, negative = inhibition is on record?
Answer: Its lipid storage change, negative = inhibition is inconclusive: 19.5%.

Question: Which Potency does the source give for `Cc1ccc(S(=O)(=O)N2CCN(Cc3cc4c(cc3Br)OCCO4)CC2)cc1` here?
Answer: The Potency was inconclusive: 1.46 µM [activator, full curve, poor fit].

Question: For `Cc1cc(NC(=O)c2cnn3c(C(F)(F)F)cc(-c4ccccc4)nc23)no1`, which Potency is on record?
Answer: The Potency was inconclusive: 29.1 µM [falling, single point].

Question: Which lipid storage change, negative = inhibition does the source give for `O=C(CN(C(=O)c1csnn1)c1cccc(F)c1)NC1CCCC1` here?
Answer: Its lipid storage change, negative = inhibition is inconclusive: -20.2%.

Question: With `CN(C)S(=O)(=O)c1cc(NC(=O)CSc2nn(-c3ccc(Cl)cc3)c(=S)s2)ccc1Cl` as the compound, how does the lipid storage change, negative = inhibition read?
Answer: Its lipid storage change, negative = inhibition is inconclusive: -22.2%.

Question: For `Cc1ccc(NC(=O)C2CCN(S(C)(=O)=O)CC2)c(C)c1`, which Potency is on record?
Answer: Its Potency is inconclusive: 29.1 µM [activator, single point].

Question: Which lipid storage change, negative = inhibition does the source give for `CC1(C)CC(NC(=O)c2cccc3ccccc23)CC(C)(C)N1` here?
Answer: Its lipid storage change, negative = inhibition is inconclusive: 41.3%.

Question: With `O=c1[nH]c(CN2CCc3ccccc3C2)nc2ccccc12` as the compound, how does the lipid storage change, negative = inhibition read?
Answer: Its lipid storage change, negative = inhibition is inconclusive: 88.7%.

Question: For `Cc1ccccc1-c1nc(CS(=O)(=O)CC(=O)NC(C)c2ccccc2)c(C)o1` (stereo not given), which lipid storage change, negative = inhibition is on record?
Answer: The lipid storage change, negative = inhibition was inconclusive: 338%.

Question: With `CN(C)C(=O)/C=C\c1cn(-c2ccccc2)nc1-c1ccc2c(c1)OCCO2` as the compound, how does the lipid storage change, negative = inhibition read?
Answer: Its lipid storage change, negative = inhibition is inconclusive: -32.7%.

Question: For `CCC1(c2ccccc2)C(=O)N(C(=O)OC(C)(C)C)N1C(=O)OC(C)(C)C` (stereo not given), which lipid storage change, negative = inhibition is on record?
Answer: Its lipid storage change, negative = inhibition is inconclusive: -9.89%.

Question: With `CNC(=O)N1CCN(C(=O)NC)CC1` as the compound, how does the lipid storage change, negative = inhibition read?
Answer: Its lipid storage change, negative = inhibition is inconclusive: -0.244%.

Question: With `O=C(CCn1c(=S)oc2ccccc21)N1CCCCC1` as the compound, how does the lipid storage change, negative = inhibition read?
Answer: Its lipid storage change, negative = inhibition is inconclusive: 1.64%.

Question: Which lipid storage change, negative = inhibition does the source give for `Cc1ccc2cc(CN(C)C(=O)C3CCCO3)c(=O)[nH]c2c1` (stereo not given) here?
Answer: The lipid storage change, negative = inhibition was inconclusive: 13.5%.

Question: Which Potency does the source give for `Cc1cccc(NC(=O)Nc2ccc(C#N)cc2)n1` here?
Answer: Its Potency is inconclusive: 0.0046 µM [activator, full curve, poor fit].

Question: With `CC(=O)CSc1ncnc2c1cnn2-c1ccccc1` as the compound, how does the lipid storage change, negative = inhibition read?
Answer: The lipid storage change, negative = inhibition was inconclusive: -5.62%.

Question: Which lipid storage change, negative = inhibition does the source give for `N#CCCCSC1=C(C#N)C(c2ccccc2Cl)CC(=O)N1` (stereo not given) here?
Answer: Its lipid storage change, negative = inhibition is inconclusive: 4.64%.

Question: For `CCc1cccc2cc3c(N)c(C(=O)Nc4ccc(S(=O)(=O)N5CCCC5)cc4)sc3nc12`, which Potency is on record?
Answer: Its Potency is active: 5.8 µM.

Question: With `c1ccc(-c2ccccc2OCc2nnc3n2CCC3)cc1` as the compound, how does the lipid storage change, negative = inhibition read?
Answer: The lipid storage change, negative = inhibition was inconclusive: 8.11%.

Question: Which lipid storage change, negative = inhibition does the source give for `O=C(Nc1c2c(nn1-c1ccc(F)cc1)CS(=O)C2)c1ccc(S(=O)(=O)N2CCOCC2)cc1` (stereo not given) here?
Answer: Its lipid storage change, negative = inhibition is inconclusive: 22.3%.

Question: For `Cc1cc(=O)[nH]c(SCc2csc(-c3ccccc3)n2)n1`, which lipid storage change, negative = inhibition is on record?
Answer: The lipid storage change, negative = inhibition was inconclusive: 71.8%.

Question: Which lipid storage change, negative = inhibition does the source give for `O=C(COC(=O)/C=C/c1ccccc1)NC1CCS(=O)(=O)C1` (stereo not given) here?
Answer: Its lipid storage change, negative = inhibition is inconclusive: 21.1%.

Question: With `CCCn1nc(C(=O)OCC(=O)c2ccccc2)c2ccccc2c1=O` as the compound, how does the lipid storage change, negative = inhibition read?
Answer: The lipid storage change, negative = inhibition was inconclusive: 42.3%.

Question: For `Cc1ccc(-c2cc([C@H]3[C@H]4C=CC[C@@H](C)[C@@H]4C(=O)N3Cc3ccccc3)ccc2F)cc1`, which “lipid storage change, negative = inhibition” value is on record?
Answer: Its value is inactive: 8.48%.

Source: PubChem BioAssay AID2685 (National Center for Advancing Translational Sciences (NCATS), 2010)
